No constants are given. Whether binding was seen depends on the method and setting. Binding can be weak; no strength is given.
Biological target: mutant, constitutively activated human αIIbβ3-P718 integrin on CHO cells (CHO-αIIbβ3-P718) (human)
Assay: flow cytometry on cells; CHO transfectants with or without 10 nM PMA, incubated 30-60 min with PE-sEng; specificity tested with a tenfold molar excess of unlabeled sEng; parental CHO as control; only the binder purified

Binder	binding
phycoerythrin-labeled soluble endoglin (PE-sEng) (domain or fragment, UniProt P17813 26-586, phycoerythrin label (site not stated)) ETVHCDLQPVGPERGEVTYTTSQVSKGCVAQAPNAILEVHVLFLEFPTGPSQLELTLQASKQNGTWPREVLLVLSVNSSVFLHLQALGIPLHLAYNSSLVTFQEPPGVNTTELPSFPKTQILEWAAERGPITSAAELNDPQSILLRLGQAQGSLSFCMLEASQDMGRTLEWRPRTPALVRGCHLEGVAGHKEAHILRVLPGHSAGPRTVTVKVELSCAPGDLDAVLILQGPPYVSWLIDANHNMQIWTTGEYSFKIFPEKNIRGFKLPDTPQGLLGEARMLNASIVASFVELPLASIVSLHASSCGGRLQTSPAPIQTTPPKDTCSPELLMSLIQTKCADDAMTLVLKKELVAHLKCTITGLTFWDPSCEAEDRGDKFVLRSAYSSCGMQVSASMISNEAVVNILSSSSPQRKKVHCLNMDSLSFQLGLYLSPHFLQASNTIEPGQQSFVQVRVSPSVSEFLLQLDSCHLDLGPEGGTVELIQGRAAKGNCVSLLSPSPEGDPRFSFLLHFYTVPIPKTGTLSCTVALRPKTGSQDQEVHRTVFMRLNIISPDLSGCTSKG	binds
soluble endoglin (sEng; extracellular domain Glu26-Gly586) (domain or fragment, UniProt P17813 26-586) ETVHCDLQPVGPERGEVTYTTSQVSKGCVAQAPNAILEVHVLFLEFPTGPSQLELTLQASKQNGTWPREVLLVLSVNSSVFLHLQALGIPLHLAYNSSLVTFQEPPGVNTTELPSFPKTQILEWAAERGPITSAAELNDPQSILLRLGQAQGSLSFCMLEASQDMGRTLEWRPRTPALVRGCHLEGVAGHKEAHILRVLPGHSAGPRTVTVKVELSCAPGDLDAVLILQGPPYVSWLIDANHNMQIWTTGEYSFKIFPEKNIRGFKLPDTPQGLLGEARMLNASIVASFVELPLASIVSLHASSCGGRLQTSPAPIQTTPPKDTCSPELLMSLIQTKCADDAMTLVLKKELVAHLKCTITGLTFWDPSCEAEDRGDKFVLRSAYSSCGMQVSASMISNEAVVNILSSSSPQRKKVHCLNMDSLSFQLGLYLSPHFLQASNTIEPGQQSFVQVRVSPSVSEFLLQLDSCHLDLGPEGGTVELIQGRAAKGNCVSLLSPSPEGDPRFSFLLHFYTVPIPKTGTLSCTVALRPKTGSQDQEVHRTVFMRLNIISPDLSGCTSKG	binds
